{
  "source": "patent US20260002115A1",
  "about": "“NOVEL BACILLUS VELEZENSIS STRAIN PRODUCING MORANOLINE AND USES THEREOF” (AMOREPACIFIC CORPORATION, priority 2024, published 2026)",
  "test_system": "normal human epidermal melanocytes (NHEMs)",
  "test": "melanin production inhibitory efficacy in NHEMs",
  "assay_type": "cell-based",
  "conditions": "250 M to 500 M (40.79 ppm to 81.59 ppm) of moranoline, 7 days",
  "note": "Some results were stated once for a whole list of compounds, not compound by compound.",
  "data": [
    {"smiles": "OC[C@H]1NC[C@H](O)[C@@H](O)[C@@H]1O", "note": "[moranoline, 1-Deoxynojirimycin]", "values": [
      {"measurement": "melanin synthesis suppressed", "result": "≥ 60", "unit": "%"}
    ]}
  ]
}
